Reference: article PMC10163345

Amino acid sequences for entries named in this document (tags omitted).
UniProt Q9BYI3: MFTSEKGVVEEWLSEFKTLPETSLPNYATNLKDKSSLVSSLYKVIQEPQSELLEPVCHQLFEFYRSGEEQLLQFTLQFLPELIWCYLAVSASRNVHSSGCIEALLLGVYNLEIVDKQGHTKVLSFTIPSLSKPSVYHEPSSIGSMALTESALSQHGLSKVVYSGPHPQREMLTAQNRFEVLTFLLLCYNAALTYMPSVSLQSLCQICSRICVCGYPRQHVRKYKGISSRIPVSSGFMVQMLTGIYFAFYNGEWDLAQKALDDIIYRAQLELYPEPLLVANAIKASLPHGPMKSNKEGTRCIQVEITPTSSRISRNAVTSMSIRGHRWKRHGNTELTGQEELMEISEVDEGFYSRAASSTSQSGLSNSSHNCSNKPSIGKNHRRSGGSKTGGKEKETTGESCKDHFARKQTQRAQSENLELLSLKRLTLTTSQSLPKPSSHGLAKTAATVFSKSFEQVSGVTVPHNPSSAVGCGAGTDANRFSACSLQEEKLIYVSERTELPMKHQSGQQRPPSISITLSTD

Target: miniTurbo–3×FLAG fused to WT CNAα (calcineurin catalytic subunit alpha, PPP3CA) (human) (UniProt Q08209)
Experiment: proximity labelling; miniTurbo–3×FLAG–CNAα (WT or NIRmut) stably expressed in HEK293 Flp-In T-REx cells; 50 μM biotin for 15 min at 37°C; asynchronous, G1/S or mitotic cells; streptavidin purification, mass spectrometry (DDA and DIA), SAINT against miniTurbo–3×FLAG alone, BFDR≤0.01

binding | Substance
binds | FAM126A (from UniProt Q9BYI3 1-521)
binds | PI4KA (from UniProt P42356 1-2102)

Results are given in words; binding and its absence hold for the method and conditions named. In cells and extracts the contact can be indirect. Here binding means that the protein was enriched with, or labelled near, the bait; the list need not be complete.
